Patent US20210355166A1 (priority 2018, published 2021)

Experiment: general procedure: Fmoc solid-phase peptide synthesis; Fmoc-Rink-amide polystyrene resin; HBTU/DIEA
Details: whole synthesis, scale 0.5 mmol

Substance “H-[2,6-dimethyl-L-tyrosyl]-D-Val-L-Val-D-Phe-L-Ser(β-Lac)-NH2” has an isolated yield (from initial resin loading) of 39% and an isolated mass of 190 mg.
